From PubChem BioAssay AID504648 (National Center for Advancing Translational Sciences (NCATS), 2011)
Hit rate of the full screen: of about 390,000 compounds, about 610 (0.16%) were called active. The shares of active, inactive and inconclusive entries below differ from those in the screen. Calls come from the whole dose curve; as a rule, active = well fitted inhibition curve with a large enough effect; inconclusive = small, poorly fitted or top-dose-only effect, or effect the other way, or another doubt; inactive = no such curve, though single readings can be large or run the other way. A potency beside an inconclusive call is a rough fit, not a confirmed value.

Test: Nrf2 qHTS screen for inhibitors: counterscreen for cytotoxicity
Settings: A549 ARE-Fluc cells, CellTiter-Fluor viability, 18-24 h; activity change, negative = cytotoxicity: at 46 µM (top of the series)
Outline: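 A549 ARE-Fluc cells in 5% FBS OPTI-MEM, 5000 cells/well, rested 2 h then exposed to compounds in concentration-response for 18-24 h at 37 °C. Viability by CellTiter-Fluor fluorescence (Ex 405/Em 525) after 30 min; luciferase luminescence (BugLite, 15 min, RT) read afterwards.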
% is set by controls: 0 for no effect and ±100 for the full control effect; potency is the fitted concentration of half-maximal effect.

SMILES | Potency | activity change, negative = cytotoxicity
CC(=O)Oc1ccc2oc(/C=C/N(C)C)c([N+](=O)[O-])c2c1 | inconclusive: 10.3 µM [falling, partial curve] | 
CC1CC2=C(CC1/C=N/NC(N)=S)C(C)(C)CCC2 (stereo unspecified) | inconclusive: 29.1 µM [falling, single point] | 
COC(=O)C1=C(C)N(c2ccc(C)c(C)c2)/C(=C/c2ccco2)C1=O | inconclusive: 29.1 µM [falling, single point] | 
COc1ccccc1NC(=O)c1c(Nc2ccccc2C)sc(C(=O)Nc2cccc(Cl)c2)c1N | inconclusive: 29.1 µM [falling, single point] | 
O=C(O)Cn1cc(/C=C2/SC(=O)N(CC(=O)N3CCCCCC3)C2=O)c2ccccc21 | inconclusive: 29.1 µM [falling, single point] | 
CCOc1ccc(N2C(=O)C(CC(=O)Nc3ccc(F)cc3)N(Cc3ccccn3)C2=S)cc1 (stereo unspecified) |  | inactive: -6.84%
CCOc1ccc(C2=Nn3c(CC)nnc3SC2)cc1 | inconclusive: 16.4 µM [falling, partial curve, poor fit] | 
CCSc1oc(-c2cccs2)nc1S(=O)(=O)c1ccc(Br)cc1 | inconclusive: 8.2 µM [activator, partial curve, poor fit] | 
COc1ccccc1CNC(=O)c1cc2c(-c3ccc(Cl)cc3)nn(C)c2s1 |  | inactive: -0.673%
O=C(C[C@H]1C/C=C\C[C@H](Cc2ccc(F)cc2)C(=O)O[C@@H](c2ccccc2)CNC1=O)N[C@H](CO)Cc1ccccc1 | inconclusive: 16.4 µM [falling, partial curve, poor fit] | 
O=C1NC(=Nc2ccccc2)S/C1=C\C=C\c1ccco1 | inconclusive: 25.9 µM [falling, partial curve, poor fit] | 
Cc1ccc(-c2csc(NC(=O)c3ccc([N+](=O)[O-])o3)n2)cc1 | inconclusive: 29.1 µM [falling, single point] | 
Cc1cccc(N2CCN(c3ncnc4c3nc3n4CCCCC3)CC2C)c1 (stereo unspecified) | active: 16.4 µM | 
COc1ccc(CC(=O)Nc2cc(S(=O)(=O)N3CCCCC3)ccc2C)cc1OC | inconclusive: 20.6 µM [falling, partial curve, poor fit] | 
C=CC[C@@H](CC(=O)N(CCO)Cc1ccccc1)C(=O)N[C@H](COC(=O)[C@@H](CC=C)CC(=O)OC(C)(C)C)c1ccccc1 | inconclusive: 32.6 µM [falling, partial curve, poor fit] | 
CCC(C(=O)NC1CCCCC1)n1c(SCc2cccc(C)c2)nc2ccncc21 (stereo unspecified) | inconclusive: 29.1 µM [falling, single point] | 
CCc1ccc(NC(=O)N(CCN2CCOCC2)Cc2ccc3c(c2)CCCN3CC)cc1 | active: 16.4 µM | 
Oc1cc(-c2ccncc2)cc2cccnc12 |  | inactive: 2.19%
Cc1ccc(NC(=O)c2cc(Cl)ccc2[N+](=O)[O-])cc1C | inconclusive: 32.6 µM [activator, partial curve, poor fit] | 
Cc1cccc(Nc2nnc(SCC3CCCCO3)s2)c1C (stereo unspecified) |  | inactive: 17.6%
O=C(CN(C(=O)CCC(=O)Nc1nccs1)c1ccc2c(c1)OCO2)NCc1ccc(F)cc1 | inconclusive: 25.9 µM [falling, partial curve, poor fit] | 

SMILES | Potency | activity change, negative = cytotoxicity
Nc1nnnn1/N=C/C(Br)=C/c1ccccc1 | inconclusive: 29.1 µM [falling, partial curve, poor fit] | 
Cc1ccc(S(=O)(=O)N2CCOCC2)cc1C(=O)N1CCCCCC1 |  | inactive: 1.91%
O=C(/C=C/c1ccccc1)NC(NC(=S)Nc1cccc(Cl)c1)C(Cl)(Cl)Cl (stereo unspecified) | inconclusive: 23.1 µM [falling, partial curve] | 
CCNC(=O)c1cc2c(=O)n3cccc(C)c3nc2n(Cc2ccc(C)cc2)c1=N |  | inactive: 0.0422%
O=C(O)CSc1nc2ccccc2n1-c1ccccc1 | inconclusive: 14.6 µM [falling, single point] | 
C=CCC[C@H](Cc1ccc(F)cc1)C(=O)OC[C@@H](C)NC(=O)[C@@H](CC=C)CC(=O)N[C@H](CO)Cc1ccccc1 | inconclusive: 32.6 µM [falling, partial curve, poor fit] | 
Cc1ccc2c(CNCc3ccc(C)o3)c(C(=O)O)n(Cc3ccc(F)cc3)c2c1 | inconclusive: 18.4 µM [falling, partial curve] | 
CCn1c([N+](=O)[O-])nc2c1c(=O)[nH]c(=O)n2C | inconclusive: 16.4 µM [falling, single point] | 
CC(C)(C)c1cc(-c2nc(N)nc(N)n2)c(O)c(C(C)(C)C)c1 | inconclusive: 29.1 µM [falling, single point] | 
COc1ccc2c(c1)c(/C=N/Nc1nc3ccccc3[nH]1)c(C)n2C | inconclusive: 29.1 µM [falling, single point] | 
CCCn1cc(S(=O)(=O)c2ccc(Cl)cc2)c(=O)c2cc(OC)ccc21 | inconclusive: 20.6 µM [activator, partial curve, poor fit] | 
COC(=O)c1c(C)oc2ccc(N(C(=O)c3ccncc3)S(=O)(=O)c3cc(C)ccc3C)cc12 |  | inactive: -10.6%
O=C1CC(=C2c3ccccc3-c3ccccc32)C(=O)N1CCCCN1CCN(c2ccccc2)CC1 | inconclusive: 29.1 µM [falling, single point] | 
CCOC(=O)c1c(C)[nH]c(N=Nc2ccc(C)cc2)c1C | inconclusive: 16.4 µM [falling, single point] | 
O=[N+]([O-])c1ccc(NN=Cc2cccc3ccccc23)nc1 |  | inactive: -10.4%
O=C1N/C(=C/c2ccc(N3CCOCC3)o2)C(=O)N1c1ccccc1 | inconclusive: 18.4 µM [falling, partial curve, poor fit] | 
CCc1nc2sc3ccccc3c(=O)c2c(=O)n1Cc1ccc(OC)cc1 | inconclusive: 32.6 µM [falling, partial curve, poor fit] | 
O=C(c1ccc(F)cc1)N1CCN(S(=O)(=O)c2ccc(Br)cc2)CC1 |  | inactive: 0.324%
Cn1cc(/C=C/c2cc[n+](C)cc2)c2cc(F)ccc21 | inconclusive: 8.2 µM [falling, partial curve] | 
COc1ccc(OC)c(NC(=O)c2cn(CC(C)C)c(=O)c3cc(OC)c(OC)cc23)c1 |  | inactive: 1.44%
